# Measured values: the supplement of paper PMC10670038
# ± gives the standard deviation of the averaged measurements. Most of the lowest values are listed elsewhere, so they are rarer here than in the full data.
# Test system: TE10
# Assay: relative cell viability vs DMSO, compound alone (fraction); TE10 is an esophageal squamous carcinoma line; higher = less cytotoxic
# Settings: 2 µM; 48 h
# Procedure: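 TE10 ESCC cells (1,000/well, 384-well plates) were treated with Selleck bioactive library compounds at 2 uM alone for 48 h. Viability was read by CellTiter-Glo and expressed relative to DMSO wells. Two technical replicates (A, B).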
row,SMILES,relative cell viability
1,O=C(O)C1=C[C@@H](O)[C@@H](O)[C@H](O)C1 [Shikimic Acid],1.102 ± 0.0079
